Measurements as given in article PMC4928820 (Molecular Pharmaceutics, 2015).

Assay type: physicochemical
Settings: 37 °C, mean ± SD, triplicate

SMILES: C(=C\c1ccccc1)/CN1CCN(C(c2ccccc2)c2ccccc2)CC1 [cinnarizine]
- Thermodynamic solubility in Carbitol (cosolvent): 54.3 ± 2.76 mg/g
- Thermodynamic solubility in Maisine 35-1 (long-chain mono-, di-, triglyceride): 29.0 ± 0.78 mg/g
- Thermodynamic solubility in Capmul MCM EP (medium-chain mono-, di-, triglyceride): 33.5 ± 1.12 mg/g
- Thermodynamic solubility in Cremophor EL (surfactant (≤3% w/w water)): 22.7 ± 1.83 mg/g
